Some of the results follow.
Legend:
Assay in all cases: log2 fold change, soluble protein after heating vs DMSO (PISA); higher = thermal stabilisation; K562 cells, 10 uM, 30 min; active = over 0.2 and 3.5 SD of the protein, either way, in both replicates (recomputed)
[1] = compound: C1=CC=C(C=C1)[C@H](COC2=CC3=C(C=C2)NC(=O)N3)NC(=O)C4=CC=CN(C4=O)CC5=CC(=C(C=C5)F)F
Outline: (§1)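 Values are thermal stability changes relative to control samples and are taken from duplicates. They are stated as log2 fold changes. Before quantification by TMTpro 16plex LC-MS/MS with equalised channel sums, K562 cells at 2×10^6 cells/mL were treated with 10 μM compound for 30 min, heated in aliquots for 3 min across 48°C-58°C, pooled, extracted in PBS with 0.5% NP-40 at 4°C, and centrifuged at 21,000xg for 90 min to give the soluble supernatant.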

By UniProt entry, the sequences of proteins in these tests, tags left out. Where a name states a change or a piece, a line headed by the entry shows the natural chain unless it says otherwise.
UniProt Q8NBI6: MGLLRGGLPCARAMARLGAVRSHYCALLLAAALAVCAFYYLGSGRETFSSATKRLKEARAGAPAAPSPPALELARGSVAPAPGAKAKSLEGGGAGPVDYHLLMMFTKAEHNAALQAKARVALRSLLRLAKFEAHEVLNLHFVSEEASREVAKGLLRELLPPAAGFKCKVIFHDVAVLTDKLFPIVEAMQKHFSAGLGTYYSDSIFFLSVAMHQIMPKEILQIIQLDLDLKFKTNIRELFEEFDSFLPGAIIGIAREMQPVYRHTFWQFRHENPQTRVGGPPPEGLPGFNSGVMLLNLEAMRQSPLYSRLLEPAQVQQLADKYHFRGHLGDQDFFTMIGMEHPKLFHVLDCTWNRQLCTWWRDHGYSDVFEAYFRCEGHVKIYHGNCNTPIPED
UniProt P67809, whole entry, looked up: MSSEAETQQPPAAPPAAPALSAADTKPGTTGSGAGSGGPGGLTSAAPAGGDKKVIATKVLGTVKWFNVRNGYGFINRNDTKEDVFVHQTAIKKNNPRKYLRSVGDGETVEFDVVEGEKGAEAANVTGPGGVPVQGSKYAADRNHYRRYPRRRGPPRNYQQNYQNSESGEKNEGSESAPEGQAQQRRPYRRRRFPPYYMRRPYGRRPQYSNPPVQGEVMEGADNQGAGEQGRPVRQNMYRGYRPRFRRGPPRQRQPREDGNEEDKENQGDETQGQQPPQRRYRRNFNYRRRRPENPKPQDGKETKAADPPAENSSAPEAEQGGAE
UniProt O60293: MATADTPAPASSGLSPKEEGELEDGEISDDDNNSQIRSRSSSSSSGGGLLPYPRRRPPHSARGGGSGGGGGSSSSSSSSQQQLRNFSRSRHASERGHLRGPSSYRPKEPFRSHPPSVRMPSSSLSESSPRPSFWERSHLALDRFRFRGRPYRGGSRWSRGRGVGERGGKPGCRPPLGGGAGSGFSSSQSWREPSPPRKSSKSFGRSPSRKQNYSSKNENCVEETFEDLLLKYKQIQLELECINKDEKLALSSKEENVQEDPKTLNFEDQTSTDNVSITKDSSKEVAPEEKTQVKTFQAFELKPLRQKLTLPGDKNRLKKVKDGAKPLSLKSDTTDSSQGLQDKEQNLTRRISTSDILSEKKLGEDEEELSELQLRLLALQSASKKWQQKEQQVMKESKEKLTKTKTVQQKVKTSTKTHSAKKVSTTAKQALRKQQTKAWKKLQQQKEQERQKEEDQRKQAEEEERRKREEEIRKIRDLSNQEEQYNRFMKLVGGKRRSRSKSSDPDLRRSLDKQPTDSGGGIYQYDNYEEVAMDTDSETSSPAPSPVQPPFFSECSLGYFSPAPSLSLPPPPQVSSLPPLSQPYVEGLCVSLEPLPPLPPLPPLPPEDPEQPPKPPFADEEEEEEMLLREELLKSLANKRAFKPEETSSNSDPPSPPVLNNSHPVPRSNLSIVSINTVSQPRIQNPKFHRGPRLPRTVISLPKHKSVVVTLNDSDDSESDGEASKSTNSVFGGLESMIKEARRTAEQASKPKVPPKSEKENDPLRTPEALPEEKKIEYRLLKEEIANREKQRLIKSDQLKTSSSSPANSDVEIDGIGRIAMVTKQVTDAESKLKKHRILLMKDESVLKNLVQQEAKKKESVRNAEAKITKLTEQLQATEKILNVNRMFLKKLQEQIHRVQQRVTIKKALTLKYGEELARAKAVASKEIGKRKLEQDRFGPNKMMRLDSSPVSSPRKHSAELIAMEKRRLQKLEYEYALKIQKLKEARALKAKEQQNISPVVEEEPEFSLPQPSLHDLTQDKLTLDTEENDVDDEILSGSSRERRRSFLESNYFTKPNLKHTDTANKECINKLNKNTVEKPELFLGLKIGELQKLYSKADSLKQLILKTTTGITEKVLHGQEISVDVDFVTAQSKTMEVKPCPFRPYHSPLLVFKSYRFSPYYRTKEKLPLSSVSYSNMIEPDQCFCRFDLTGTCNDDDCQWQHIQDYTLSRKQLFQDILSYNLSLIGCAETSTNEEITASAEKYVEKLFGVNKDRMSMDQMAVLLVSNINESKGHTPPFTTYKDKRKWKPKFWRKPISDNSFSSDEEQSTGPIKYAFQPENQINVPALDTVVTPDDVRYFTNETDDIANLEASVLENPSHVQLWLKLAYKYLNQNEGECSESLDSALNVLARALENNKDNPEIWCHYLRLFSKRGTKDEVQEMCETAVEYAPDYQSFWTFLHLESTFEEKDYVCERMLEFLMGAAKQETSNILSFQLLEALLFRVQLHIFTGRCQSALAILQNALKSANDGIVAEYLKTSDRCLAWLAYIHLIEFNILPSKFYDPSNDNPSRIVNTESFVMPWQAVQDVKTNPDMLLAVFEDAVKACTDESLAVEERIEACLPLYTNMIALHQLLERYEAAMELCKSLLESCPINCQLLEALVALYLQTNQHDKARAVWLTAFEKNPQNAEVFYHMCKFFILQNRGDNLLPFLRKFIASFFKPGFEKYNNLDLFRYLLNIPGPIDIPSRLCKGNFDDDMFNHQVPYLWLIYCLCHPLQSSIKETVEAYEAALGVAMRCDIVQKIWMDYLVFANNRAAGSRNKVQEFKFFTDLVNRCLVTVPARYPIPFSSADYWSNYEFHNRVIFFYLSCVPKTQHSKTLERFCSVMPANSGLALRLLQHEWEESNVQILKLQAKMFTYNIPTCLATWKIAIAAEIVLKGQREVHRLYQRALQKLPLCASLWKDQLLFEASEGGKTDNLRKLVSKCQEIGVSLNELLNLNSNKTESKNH
UniProt Q9BYJ9: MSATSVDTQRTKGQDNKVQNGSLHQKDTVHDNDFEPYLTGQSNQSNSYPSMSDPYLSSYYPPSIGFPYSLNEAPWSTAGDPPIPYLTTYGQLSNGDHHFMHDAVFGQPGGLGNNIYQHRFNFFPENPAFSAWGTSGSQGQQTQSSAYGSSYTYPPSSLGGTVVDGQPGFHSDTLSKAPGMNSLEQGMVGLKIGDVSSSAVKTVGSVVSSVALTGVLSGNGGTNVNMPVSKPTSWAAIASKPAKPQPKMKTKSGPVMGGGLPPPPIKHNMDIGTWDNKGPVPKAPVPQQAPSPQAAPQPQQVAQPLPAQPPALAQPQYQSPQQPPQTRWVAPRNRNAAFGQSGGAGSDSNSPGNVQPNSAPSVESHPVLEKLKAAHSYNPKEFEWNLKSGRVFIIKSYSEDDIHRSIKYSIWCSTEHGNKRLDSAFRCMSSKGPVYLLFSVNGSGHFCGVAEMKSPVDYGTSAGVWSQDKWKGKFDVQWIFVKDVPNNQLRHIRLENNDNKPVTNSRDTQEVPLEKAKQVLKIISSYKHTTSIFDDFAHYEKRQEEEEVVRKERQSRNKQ
UniProt Q5VVQ6: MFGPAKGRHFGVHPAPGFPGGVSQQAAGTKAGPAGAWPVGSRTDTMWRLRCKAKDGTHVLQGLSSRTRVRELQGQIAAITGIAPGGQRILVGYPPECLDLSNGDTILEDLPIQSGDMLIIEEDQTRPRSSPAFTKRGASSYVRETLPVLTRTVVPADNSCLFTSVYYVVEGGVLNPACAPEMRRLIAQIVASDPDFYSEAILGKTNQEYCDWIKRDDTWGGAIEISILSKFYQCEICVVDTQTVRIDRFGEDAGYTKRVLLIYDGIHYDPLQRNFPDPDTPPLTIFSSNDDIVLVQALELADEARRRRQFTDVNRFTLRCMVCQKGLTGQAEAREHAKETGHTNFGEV
UniProt Q7Z2W4: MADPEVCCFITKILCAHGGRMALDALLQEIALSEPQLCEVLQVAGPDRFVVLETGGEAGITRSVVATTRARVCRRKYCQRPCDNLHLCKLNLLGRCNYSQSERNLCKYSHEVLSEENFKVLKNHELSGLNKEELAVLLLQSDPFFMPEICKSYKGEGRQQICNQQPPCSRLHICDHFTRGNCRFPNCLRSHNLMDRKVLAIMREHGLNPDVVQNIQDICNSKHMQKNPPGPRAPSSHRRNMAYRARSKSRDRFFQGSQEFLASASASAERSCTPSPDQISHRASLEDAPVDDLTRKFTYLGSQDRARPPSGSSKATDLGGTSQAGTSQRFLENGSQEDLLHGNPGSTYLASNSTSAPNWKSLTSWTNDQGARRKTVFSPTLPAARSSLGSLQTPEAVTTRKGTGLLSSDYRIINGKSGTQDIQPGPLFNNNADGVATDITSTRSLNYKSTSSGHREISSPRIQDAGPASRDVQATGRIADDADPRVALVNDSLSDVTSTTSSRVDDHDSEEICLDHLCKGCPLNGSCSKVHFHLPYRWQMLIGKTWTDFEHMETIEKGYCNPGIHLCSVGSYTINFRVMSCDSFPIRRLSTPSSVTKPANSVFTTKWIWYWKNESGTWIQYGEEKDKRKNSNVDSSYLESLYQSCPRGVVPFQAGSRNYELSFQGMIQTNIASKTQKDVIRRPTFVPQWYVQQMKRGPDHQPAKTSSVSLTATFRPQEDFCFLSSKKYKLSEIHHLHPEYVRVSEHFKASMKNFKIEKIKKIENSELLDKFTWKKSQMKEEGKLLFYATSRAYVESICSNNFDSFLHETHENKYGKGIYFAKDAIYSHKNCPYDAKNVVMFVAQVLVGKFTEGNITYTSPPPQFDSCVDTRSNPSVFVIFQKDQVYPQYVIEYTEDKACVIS
UniProt P63104: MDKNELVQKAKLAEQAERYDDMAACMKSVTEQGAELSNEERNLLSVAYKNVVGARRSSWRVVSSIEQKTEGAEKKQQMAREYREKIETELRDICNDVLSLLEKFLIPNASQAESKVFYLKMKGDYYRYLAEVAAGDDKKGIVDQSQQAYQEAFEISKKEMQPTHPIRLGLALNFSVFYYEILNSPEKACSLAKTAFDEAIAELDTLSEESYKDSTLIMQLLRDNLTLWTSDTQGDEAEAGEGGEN
UniProt Q86U90: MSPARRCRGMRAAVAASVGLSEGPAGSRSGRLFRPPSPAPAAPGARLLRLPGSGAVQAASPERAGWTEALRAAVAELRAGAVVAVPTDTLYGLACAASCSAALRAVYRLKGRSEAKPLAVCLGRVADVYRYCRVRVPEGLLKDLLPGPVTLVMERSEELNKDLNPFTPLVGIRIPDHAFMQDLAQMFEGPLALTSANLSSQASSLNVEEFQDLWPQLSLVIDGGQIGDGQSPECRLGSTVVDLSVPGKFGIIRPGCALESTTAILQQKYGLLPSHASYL
UniProt P62258: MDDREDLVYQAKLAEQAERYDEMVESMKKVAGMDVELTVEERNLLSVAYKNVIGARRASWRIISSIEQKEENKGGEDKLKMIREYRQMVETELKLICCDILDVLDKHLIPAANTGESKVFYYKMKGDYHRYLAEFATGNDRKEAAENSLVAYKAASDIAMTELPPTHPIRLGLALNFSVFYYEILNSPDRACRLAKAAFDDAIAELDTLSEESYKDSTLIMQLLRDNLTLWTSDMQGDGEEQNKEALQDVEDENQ
UniProt P31946: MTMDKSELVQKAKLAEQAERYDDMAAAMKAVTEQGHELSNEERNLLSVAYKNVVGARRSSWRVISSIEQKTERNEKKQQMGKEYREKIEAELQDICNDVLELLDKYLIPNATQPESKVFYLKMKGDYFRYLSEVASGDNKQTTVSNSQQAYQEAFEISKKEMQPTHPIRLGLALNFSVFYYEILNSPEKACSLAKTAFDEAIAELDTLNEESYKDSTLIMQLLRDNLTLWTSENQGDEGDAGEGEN
UniProt P52747: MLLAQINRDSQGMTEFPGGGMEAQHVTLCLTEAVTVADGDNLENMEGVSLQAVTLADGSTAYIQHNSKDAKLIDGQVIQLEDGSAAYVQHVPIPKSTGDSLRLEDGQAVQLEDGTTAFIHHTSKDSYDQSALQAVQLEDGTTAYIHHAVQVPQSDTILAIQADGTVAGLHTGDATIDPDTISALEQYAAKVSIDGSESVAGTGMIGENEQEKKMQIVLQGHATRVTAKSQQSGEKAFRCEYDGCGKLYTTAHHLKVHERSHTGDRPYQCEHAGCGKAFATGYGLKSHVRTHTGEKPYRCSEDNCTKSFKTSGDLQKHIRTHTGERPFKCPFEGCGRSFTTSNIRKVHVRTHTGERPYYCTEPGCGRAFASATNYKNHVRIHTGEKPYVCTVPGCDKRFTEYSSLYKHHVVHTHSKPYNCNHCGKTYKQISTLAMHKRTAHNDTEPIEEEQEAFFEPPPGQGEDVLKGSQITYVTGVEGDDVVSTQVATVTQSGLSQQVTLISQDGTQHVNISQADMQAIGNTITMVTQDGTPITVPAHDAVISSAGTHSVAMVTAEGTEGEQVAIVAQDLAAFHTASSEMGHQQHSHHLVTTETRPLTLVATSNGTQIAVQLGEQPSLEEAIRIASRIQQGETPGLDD
UniProt O95159: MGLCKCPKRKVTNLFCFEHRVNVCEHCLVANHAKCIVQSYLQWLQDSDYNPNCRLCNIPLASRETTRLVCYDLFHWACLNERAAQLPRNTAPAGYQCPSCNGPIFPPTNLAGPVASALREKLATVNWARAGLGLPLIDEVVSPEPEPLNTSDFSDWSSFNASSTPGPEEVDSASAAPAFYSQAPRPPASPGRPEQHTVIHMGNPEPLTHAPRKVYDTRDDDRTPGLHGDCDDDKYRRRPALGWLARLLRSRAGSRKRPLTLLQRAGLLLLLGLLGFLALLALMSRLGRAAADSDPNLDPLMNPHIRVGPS

[2] = compound: CC1=C(SC2=C1C(=N[C@H](C3=NN=C(N32)C)CC(=O)N)C4=CC=C(C=C4)Cl)C
Outline: as §1

[3] = compound: CC1=C2C(=CC=C1)N=C(N(C2=O)C3=CC=CC=C3C)CN4C=NC5=C(N=CN=C54)N
Outline: as §1

[4] = compound: Cc1sc2c(c1C)C(c1ccc(Cl)cc1)=N[C@@H](CC(=O)OC(C)(C)C)c1nnc(C)n1-2
Outline: as §1

[5] = compound: c1ccc([C@@H]2C[C@H]2NC2CCNCC2)cc1
Outline: as §1

Measured: log2 fold change

ZMYM1 (UniProt Q5SVZ6)
inactive: [1] 0.077 | [2] 0.082 | [3] -0.144 | [4] -0.012 | [5] -0.011

YARS (UniProt P54577)
inactive: [1] -0.035 | [2] 0.019 | [3] 0.084 | [4] -0.028 | [5] -0.054

XXYLT1 (UniProt Q8NBI6)
inactive: [1] -0.015 | [2] 0.045 | [3] 0.102 | [4] -0.017 | [5] -0.067

YBX1 (UniProt P67809)
inactive: [1] 0.105 | [2] -0.228 | [3] -0.143 | [4] 0.115 | [5] 0.052

ZNF225 (UniProt Q9UK10)
inactive: [1] 0.087

ZFC3H1 (UniProt O60293)
inactive: [1] -0.078

ZMYM3 (UniProt Q14202)
inactive: [1] -0.03 | [2] 0.055 | [3] -0.02 | [4] 0.043 | [5] 0.103

YARS2 (UniProt Q9Y2Z4)
inactive: [1] -0.107 | [2] 0.025 | [3] 0.234 | [4] -0.073 | [5] -0.04

YTHDF1 (UniProt Q9BYJ9)
inactive: [1] 0.14

YOD1 (UniProt Q5VVQ6)
inactive: [1] -0.071 | [2] 0.035 | [3] 0.063 | [4] -0.005 | [5] 0.046

ZC3HAV1 (UniProt Q7Z2W4)
inactive: [1] 0.027 | [2] -0.209 | [3] -0.29 | [4] 0.195 | [5] 0.043

Reprinted from the entries so far (7 entries):
YARS (UniProt P54577)
inactive: [1] -0.035 | [2] 0.019 | [3] 0.084 | [4] -0.028 | [5] -0.054

XXYLT1 (UniProt Q8NBI6)
inactive: [1] -0.015 | [2] 0.045 | [3] 0.102 | [4] -0.017 | [5] -0.067

YBX1 (UniProt P67809)
inactive: [1] 0.105 | [2] -0.228 | [3] -0.143 | [4] 0.115 | [5] 0.052

ZNF225 (UniProt Q9UK10)
inactive: [1] 0.087

ZFC3H1 (UniProt O60293)
inactive: [1] -0.078

ZMYM3 (UniProt Q14202)
inactive: [1] -0.03 | [2] 0.055 | [3] -0.02 | [4] 0.043 | [5] 0.103

YARS2 (UniProt Q9Y2Z4)
inactive: [1] -0.107 | [2] 0.025 | [3] 0.234 | [4] -0.073 | [5] -0.04

(listing goes on)

YBX3 isoform 2 (UniProt P16989)
inactive: [1] 0.075 | [2] -0.297 | [3] -0.251 | [4] 0.251 | [5] 0.099

XRCC6 (UniProt P12956)
inactive: [1] -0.04 | [2] 0.044 | [3] 0.114 | [4] -0.022 | [5] -0.003

YY1 (UniProt P25490)
inactive: [1] 0.013 | [2] -0.006 | [3] -0.033 | [4] -0.015 | [5] 0.084

YWHAZ (UniProt P63104)
inactive: [1] -0.012 | [2] 0.035 | [3] -0.031 | [4] -0.033 | [5] -0.025

YRDC (UniProt Q86U90)
inactive: [1] 0.007 | [2] 0.063 | [3] 0.111 | [4] -0.017 | [5] -0.024

XRCC5 (UniProt P13010)
inactive: [1] -0.136 | [2] -0.019 | [3] 0.095 | [4] 0 | [5] -0.003

YWHAE (UniProt P62258)
inactive: [1] 0.02 | [2] 0.002 | [3] -0.002 | [4] -0.016 | [5] 0.021

ZMYM2 (UniProt Q9UBW7)
inactive: [1] -0.302

YWHAB (UniProt P31946)
inactive: [1] -0.024 | [2] 0.024 | [3] -0.01 | [4] -0.004 | [5] -0.03

ZNF143 (UniProt P52747)
inactive: [1] 0.015 | [2] -0.013 | [3] -0.022 | [4] 0.064 | [5] 0.107

ZFPL1 (UniProt O95159)
inactive: [1] 0.09 | [2] 0.084 | [3] 0.063 | [4] -0.042 | [5] -0.032

ZC2HC1A (UniProt Q96GY0)
inactive: [1] 0.031 | [2] 0.021 | [3] -0.105 | [4] 0.066 | [5] 0.071

XPR1 (UniProt Q9UBH6)
inactive: [1] -0.004 | [2] 0.037 | [3] 0.042 | [4] 0.001 | [5] 0

YWHAH (UniProt Q04917)
inactive: [1] -0.015 | [2] -0.015 | [3] -0.049 | [4] -0.046 | [5] 0.016

ZDHHC2 (UniProt Q9UIJ5)
inactive: [1] 0.156

YME1L1 (UniProt Q96TA2)
inactive: [1] 0.021 | [2] -0.039 | [3] 0.021 | [4] 0.048 | [5] 0.032

XRN2 (UniProt Q9H0D6)
inactive: [1] 0.017 | [2] -0.033 | [3] 0.004 | [4] 0.056 | [5] 0.106

— the supplement of paper PMC10849652
